Residue numbers refer to the chain shown, from its start. Names and notes keep the numbering of the source. No constants are given. Whether binding was seen depends on the method and setting. Some results given as binding are weak or reduced against the parent protein; the word gives no strength.
B1: huMA79b H1-1, Fab (graft variant, SEQ ID NO: 67) (Fab, name in Kabat numbering, V domains shown)
VH: EVQLVESGGGLVQPGGSLRLSCAASGYPFNRYWINWVRQAPGKGLEWVGEILPGGGDTNYNEIFKGRFTISADTSKNTAYLQMNSLRAEDTAVYYCTRRVPVYFDYWGQGTLVTVSS
VL: DIQMTQSPSSLSASVGDRVTITCKASQSVDYDGDSFLNWYQQKPGKAPKLLIYAASNLESGVPSRFSGSGSGTDFTLTISSLQPEDFATYYCQQSNEDPLTFGQGTKVEIKR
B2: huMA79b graft variant, SEQ ID NO: 44 (Fab, name in Kabat numbering, V domains shown)
VH: B1 VH with P28T, N30S, R31S, N35E
VL: B1 VL with S56R, N57K, E59G, S60G
B3: huMA79b graft variant, SEQ ID NO: 54 (Fab, name in Kabat numbering, V domains shown)
VH: B1 VH with N30T, N35S
VL: B1 VL
B4: huMA79b graft variant, SEQ ID NO: 39 (Fab, name in Kabat numbering, V domains shown)
VH: B1 VH with P28T, N30S, R31S, N35E
VL: B1 VL with S56R, N57R, E59G, S60R
B5: huMA79b graft variant, SEQ ID NO: 47 (E93Q) (Fab, name in Kabat numbering, V domains shown)
VH: B1 VH with P28T, N30S, R31S, N35E
VL: B1 VL with E97Q
B6: huMA79b graft variant, SEQ ID NO: 41 (Fab, name in Kabat numbering, V domains shown)
VH: B1 VH with P28T, N30S, R31S, N35E
VL: B1 VL with S56R, N57K, E59L, S60R
B7: huMA79b graft variant, SEQ ID NO: 50 (E93L) (Fab, name in Kabat numbering, V domains shown)
VH: B1 VH with P28T, N30S, R31S, N35E
VL: B1 VL with E97L
B8: huMA79b graft variant, SEQ ID NO: 37 (Fab, name in Kabat numbering, V domains shown)
VH: B1 VH with P28T, N30S, R31S, N35E
VL: B1 VL with S56R, N57Y, E59R, S60R
B9: huMA79b graft variant, SEQ ID NO: 49 (E93D) (Fab, name in Kabat numbering, V domains shown)
VH: B1 VH with P28T, N30S, R31S, N35E
VL: B1 VL with E97D
B10: huMA79b graft variant, SEQ ID NO: 40 (Fab, name in Kabat numbering, V domains shown)
VH: B1 VH with P28T, N30S, R31S, N35E
VL: B1 VL with S56R, N57Q, L58R, E59K, S60R
B11: huMA79b graft variant, SEQ ID NO: 51 (Fab, name in Kabat numbering, V domains shown)
VH: B1 VH with P28T, N30S, R31S, N35E
VL: B1 VL with Q93N, Q94N, E97G, T101N
B12: huMA79b graft variant, SEQ ID NO: 45 (Fab, name in Kabat numbering, V domains shown)
VH: B1 VH with P28T, N30S, R31S, N35E
VL: B1 VL with S56R, N57K, E59A, S60R
B13: huMA79b graft variant, SEQ ID NO: 53 (Fab, name in Kabat numbering, V domains shown)
VH: B1 VH with P28T, N30S, R31S, N35E
VL: B1 VL with Q93D, S95R, E97A
B14: huMA79b graft variant, SEQ ID NO: 42 (Fab, name in Kabat numbering, V domains shown)
VH: B1 VH with P28T, N30S, R31S, N35E
VL: B1 VL with S56R, N57K, E59K, S60N
B15: huMA79b graft variant, SEQ ID NO: 38 (Fab, name in Kabat numbering, V domains shown)
VH: B1 VH with P28T, N30S, R31S, N35E
VL: B1 VL with S56R, N57R, E59R, S60T
B16: huMA79b graft variant, SEQ ID NO: 46 (E93A) (Fab, name in Kabat numbering, V domains shown)
VH: B1 VH with P28T, N30S, R31S, N35E
VL: B1 VL with E97A
B17: huMA79b graft variant, SEQ ID NO: 43 (Fab, name in Kabat numbering, V domains shown)
VH: B1 VH with P28T, N30S, R31S, N35E
VL: B1 VL with S56R, N57K, E59G, S60T
B18: huMA79b graft variant, SEQ ID NO: 106 (V96I) (Fab, name in Kabat numbering, V domains shown)
VH: B1 VH with P28T, N30S, R31S, N35E, V100I
VL: B1 VL
B19: huMA79b graft variant, SEQ ID NO: 52 (Fab, name in Kabat numbering, V domains shown)
VH: B1 VH with P28T, N30S, R31S, N35E
VL: B1 VL with Q94P, S95D, D98A, L100R

Sequences of proteins named here, by UniProt entry; tags and fusion partners are left off. A change or cut given only in a name is not applied to a line headed by its entry.
UniProt P40259: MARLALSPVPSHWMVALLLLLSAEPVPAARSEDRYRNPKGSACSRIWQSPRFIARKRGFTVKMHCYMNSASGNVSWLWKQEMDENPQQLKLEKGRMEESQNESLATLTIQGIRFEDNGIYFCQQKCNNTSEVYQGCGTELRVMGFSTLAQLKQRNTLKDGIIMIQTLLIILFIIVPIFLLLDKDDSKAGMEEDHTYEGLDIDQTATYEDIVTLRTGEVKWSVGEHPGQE

Molecular target: extracellular domain of human CD79b (huCD79becd) (human) (UniProt P40259)
Test: phage selection on plate-bound antigen

binding, binds:
B1
B2
B3
B4
B5
B6
B7
B8
B9
B10
B11
B12
B13
B14
B15
B16
B17
B18
B19

Molecular target: human CD79b on cells (DoHH-2, BJAB, BJAB-luciferase) (human) (UniProt P40259)
Test: FACS on DoHH-2 cells

binding, binds:
B1
